PubChem BioAssay AID1259308, NCATS | 2017
Aim: 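Genes whose loss raises luciferase production in HEK293 cells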 (primary screen). System: human HEK293 embryonic kidney cells stably expressing firefly luciferase (HEK-CMV-Luc2-Hygro). Reagents: single siRNA against human genes, 0.8 pmol siRNA per well. Duration: 72 h. Detection: 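Reporter luminescence and viable-cell signal on separate replicate plates, given as percent of non-targeting control and median/MAD z-scores, plus per-cell luciferase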. Scale: total luciferase, z-score: higher = more reporter protein produced. Call rule: 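An siRNA counts as active if its total luciferase robust z-score exceeds 3; genes with two or more such siRNAs out of three were retested with fresh siRNAs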. Calls: active = raised luciferase; inactive = no rise.
This is an unselected part of about 59,000 reagents. About 1,510 of all reagents (2.6%) count as active. 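Calls use total luciferase alone and ignore viability, so some active siRNAs may act by altering cell number.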 The numbers tell different reagents against one gene apart. Further read-outs or replicates are left out here.

DIAPH3 #1 gave total luciferase, z-score -0.774; inactive.
With knock-down of DIAPH3 #2 the results were total luciferase, z-score -0.247; inactive.
Knock-down of DIAPH3 #3 came out at: total luciferase, z-score -0.846; inactive.
For VPS13C #1, the values are total luciferase, z-score 0.373; inactive.
For VPS13C #2 the deposit lists total luciferase, z-score -0.209; inactive.
After knock-down of VPS13C #3, the record shows total luciferase, z-score 0.0502; inactive.
For EPX #1 the deposit lists total luciferase, z-score -1.16; inactive.
After knock-down of EPX #2 the results were total luciferase, z-score 0.128; inactive.
EPX #3 gave total luciferase, z-score 0.536; inactive.
LOC338963 #1 scored total luciferase, z-score 5.12; active.
After knock-down of LOC338963 #2, the screen gave total luciferase, z-score -0.425; inactive.
Against LOC338963 #3 the deposit lists total luciferase, z-score 2.08; inactive.
MAPK15 #1 gave total luciferase, z-score 0.356; inactive.
MAPK15 #2 showed total luciferase, z-score 0.624; inactive.
With knock-down of MAPK15 #3, the screen gave total luciferase, z-score 0.0198; inactive.
With knock-down of COX7A1 #1, the record shows total luciferase, z-score -0.332; inactive.
After knock-down of COX7A1 #2 the results were total luciferase, z-score -0.685; inactive.
After knock-down of COX7A1 #3, the record shows total luciferase, z-score -0.91; inactive.
After knock-down of PDZK1 #1, the screen gave total luciferase, z-score -0.355; inactive.
After knock-down of PDZK1 #2 the results were total luciferase, z-score -1.8; inactive.
PDZK1 #3 scored total luciferase, z-score 1.09; inactive.
For MUCL3 #1, the entry reads total luciferase, z-score 2.07; inactive.
Against MUCL3 #2, the entry reads total luciferase, z-score 0.383; inactive.
With knock-down of MUCL3 #3 the results were total luciferase, z-score -0.993; inactive.
Against MED30 #1, the values are total luciferase, z-score -1.42; inactive.
Knock-down of MED30 #2 gave: total luciferase, z-score -0.728; inactive.
Against MED30 #3, the values are total luciferase, z-score -1.42; inactive.
After knock-down of ASB4 #1 the results were total luciferase, z-score -0.0811; inactive.
For ASB4 #2 the deposit lists total luciferase, z-score -0.861; inactive.
Silencing of ASB4 #3 gave: total luciferase, z-score -0.352; inactive.
With knock-down of HACD3 #1 the results were total luciferase, z-score 0.151; inactive.
HACD3 #2 scored total luciferase, z-score 0.192; inactive.
Against HACD3 #3 the deposit lists total luciferase, z-score -0.0696; inactive.

Reformatted: 2 of the entries above
Gene,siRNA no.,"total luciferase, z-score",Call
DIAPH3,2,-0.247,inactive
DIAPH3,3,-0.846,inactive
